Reference: patent US20080171350A1, “Neural Cell Differentiation Method From Es Cells” (NOVARTIS FORSCHUNGSSTIFTUNG, ZWEIGNIEDERLASSUNG FRIEDRICH …, priority 2004, published 2008)
At least one compound was matched to its structure with a doubt left.

Tested on: embryoid bodies (EBs) formed from ES cells
Test: Retinoic acid treatment of ES cell-derived embryoid bodies, Pax-6 immunocytochemistry
Type: cell-based, mouse
Conditions: after 4 days of RA treatment (5 μM); no Pax-6-positive cells in the absence of RA

CC1=C(/C=C/C(C)=C/C=C/C(C)=C/C(=O)O)C(C)(C)CCC1 [RA, retinoic acid]
Pax-6 expression of cells in EBs: virtually all cells express Pax-6
